Laboratory results: PubChem BioAssay AID587 (National Center for Advancing Translational Sciences (NCATS), 2007)
Out of some 59,000 compounds screened, about 35 (0.06%) were called active. Inconclusive results, whose numbers are uncertain, are shown with a selection of clear calls. No stated cut-off is given here; in the data, active means max dye-equivalent concentration above about 10 nM; inconclusive means between about 1.1 nM and that limit; inactive means weaker than that.

assay: qHTS Assay for Spectroscopic Profiling in Texas Red Spectral Region; settings: Compound fluorescence, Texas Red channel, 547/618 nm; active compounds read high
Method in brief: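 qHTS profiling of intrinsic compound fluorescence; 100 mM Tris pH 8.0; 15 min RT; ex 547 / em 618 nm; response expressed as Texas Red dye-equivalent concentration from six-point plate standard.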

SMILES | max dye-equivalent concentration
CCOc1ccccc1CN1C(=O)c2ccccc2C1C(=O)NCC1CCCO1 (stereo not given) | inconclusive: 1.2 nM
CS(=O)(=O)N1CCC(C(=O)NCCN2CCN(Cc3ccccc3)CC2)CC1 | inconclusive: 1.2 nM
CCCC(c1nnnn1Cc1cccs1)N1CCN(C2CCCC2)CC1 (stereo not given) | inconclusive: 2 nM
N#CN(CC(N)=O)c1nc(N2CCCCC2)nc(N2CCCCC2)n1 | inconclusive: 2.2 nM
O=C(Nc1cccc2c1CCCC2)C1CCN(C(=O)NC2CCCCC2)CC1 | inconclusive: 1.7 nM
COc1ccc(CCNC(=O)CN2C(=O)c3ccccc3S2(=O)=O)cc1OC | inconclusive: 1.4 nM
CCS(=O)(=O)N1CCC(NC(=O)c2ccco2)CC1 | inconclusive: 1.1 nM
Cc1cc2ncn(S(=O)(=O)c3ccc(S(=O)(=O)N4CCOCC4)cc3)c2cc1C | inconclusive: 1.2 nM
Cc1ccc(CC2(O)CC(C)N(C)CC2C)c(C)c1 (stereo not given) | inconclusive: 1.6 nM
CCOc1ccc(OCC)c(NC(=O)C2CCN(c3ncccn3)CC2)c1 | inconclusive: 1.3 nM
COC(=O)CSc1cc(C)nc(NC(C)=O)n1 | inconclusive: 1.2 nM
c1ccc2c(c1)CCC[C@H]2C1=NCCN1 | inconclusive: 1.2 nM
O=c1cc(N2CCc3ccccc3C2)[nH]c(=O)n1C1CCCCC1 | inconclusive: 1.7 nM
COc1ccc(CN2CCC(C(=O)N(C)CCc3ccc(OC)c(OC)c3)CC2)c(OC)c1 | inconclusive: 1.3 nM
Cc1sc(NC(=O)c2ccccc2)c(C(=O)N2CCN(C)CC2)c1C | inconclusive: 1.4 nM
CCOc1ccc(-c2noc(COC)n2)cc1OC | inconclusive: 1.3 nM
CCC1(NC(C)=O)CC2CC1CC2NC(C)=O (stereo not given) | inconclusive: 1.5 nM
CCOc1ccc2nc(NCCNC(=O)C(C)C)c(C)cc2c1 | inconclusive: 1.2 nM
COc1ccc(C(=O)N2CCC3(CCN(C(=O)Nc4cccc(C#N)c4)CC3)CC2)cc1 | inactive
O=C(CCC(=O)N(Cc1ccco1)C(C(=O)NC1CCCC1)c1ccncc1)Nc1cccnc1 (stereo not given) | inconclusive: 1.7 nM
Cc1ccc2[nH]c(C(=O)O)c(NC(=O)CN3CCN(c4cccc(C)c4C)CC3)c2c1 | inconclusive: 1.5 nM
COc1ccc(CNC(=O)c2csnn2)cc1 | inconclusive: 1.5 nM
COC(=O)c1ccc(Cl)c(NS(=O)(=O)c2ccc3c(c2)OCCO3)c1 | inconclusive: 1.1 nM
O=C(c1ccco1)N1CCN(c2ncnc3c2cnn3-c2ccccc2)CC1 | inconclusive: 1.3 nM
CCn1cc(C(C)NC(=O)COc2ccc(Cl)cc2C)c(C)n1 (stereo not given) | inconclusive: 1.8 nM
CCCS(=O)(=O)N1CCC(C(=O)c2cccc(C(F)(F)F)c2)CC1 | inconclusive: 1.2 nM
COc1ccccc1NC(=O)CSc1nnc(Cc2cccn2C)n1CCc1ccccc1 | inconclusive: 1.9 nM
O=C1NCCCC1C(=O)N1CCN(C(=O)C2CCCNC2=O)CC1 (stereo not given) | inconclusive: 1.1 nM

SMILES | max dye-equivalent concentration
COc1ccc(NC2c3ncccc3C(=O)N2Cc2ccccc2)c(OC)c1 (stereo not given) | inconclusive: 2 nM
O=C(N1CCOCC1)N1CCN(CC(O)COc2ccc3ccccc3c2)CC1 (stereo not given) | inconclusive: 2.4 nM
CCN(CC)C(=O)C1CCC(C)(C(=O)O)C1(C)C (stereo not given) | inconclusive: 1.2 nM
Cc1ccc(-n2c(C)c3c(C)nnc(C)c3c2C)cc1 | inconclusive: 1.8 nM
O=S(=O)(NC1CCCC1)c1ccc(Br)s1 | inconclusive: 1.4 nM
COc1cc(CCC(=O)Nc2cc(Cl)ccc2N2CCN(C)CC2)cc(OC)c1OC | inconclusive: 2.6 nM
O=C1CN(c2ccccc2F)C(=O)CN1c1ccccc1F | inconclusive: 1.4 nM
CCN1CCc2nc(NC(=O)Cc3ccc4c(c3)OCCO4)sc2C1 | inconclusive: 1.3 nM
COc1cccc(NC(=O)Cc2c(O)c3ccccc3[nH]c2=O)c1 | inconclusive: 1.9 nM
O=C(CCS(=O)(=O)c1ccc(Cl)cc1)N1CCN(c2ccccc2F)CC1 | inconclusive: 1.6 nM
C=CCOC(=O)C(C#N)c1nc2ccccc2nc1N1CCCC1 (stereo not given) | inconclusive: 1.6 nM
CCOC(=O)N1CCC(=C2c3ccc(Cl)cc3CCc3cccnc32)CC1 | inconclusive: 1.2 nM
O=C1C=C(NCc2ccco2)CCC1 | inconclusive: 1.2 nM
CCn1c(=O)c(=O)[nH]c2cc(C(=O)NC3CCCc4ccccc43)ccc21 (stereo not given) | inconclusive: 2.9 nM
COC(=O)c1cccc(Oc2nc(N3CCOCC3)nc(N3CCOCC3)n2)c1 | inconclusive: 2.3 nM
COc1ccccc1C(=O)Nc1ccccn1 | inconclusive: 1.1 nM
CCS(=O)(=O)Nc1ccc(-c2nnc(SCC(=O)OC)o2)cc1 | inconclusive: 2.4 nM
COc1ccc(Cn2nnnc2C(c2ccc(F)cc2)N2CCN(C3CCCC3)CC2)cc1 (stereo not given) | inconclusive: 1.1 nM
CC1Cc2ccccc2N1C(=O)CSc1nc2ccccc2n1CC(=O)N1CCOCC1 (stereo not given) | inconclusive: 2 nM
OC(CN1CCN(c2ccccc2)CC1)c1c[nH]c2ccccc12 (stereo not given) | inconclusive: 1.4 nM
O=C(c1ccco1)N1CCN(CC(O)COc2ccc3oc4ccccc4c3c2)CC1 (stereo not given) | inconclusive: 2.9 nM
COc1cccc(NC2=NC3(CCCCC3)N=C(N)N2)c1 | inconclusive: 1.2 nM
O=C(NC1CCCCC1)N(Cc1ccc(F)cc1)Cc1nc2ccccc2c(=O)[nH]1 | inconclusive: 1.1 nM
O=C(Nc1ccccc1)c1cccc(N2C(=O)CCC2=O)c1 | inconclusive: 1.3 nM
Cc1ccc(C)c(CSc2nnc([C@@H](N)C(C)C)o2)c1 | inconclusive: 2.9 nM
O=C1c2ccccc2-c2onc3ccc(NCc4ccco4)c1c23 | active: 18 nM
C=CCn1c(SCC(=O)C(C)(C)C)nnc1-c1cccs1 | inconclusive: 1.1 nM

Quoted at random: 2 entries already listed.
SMILES | max dye-equivalent concentration
COc1cccc(NC2=NC3(CCCCC3)N=C(N)N2)c1 | inconclusive: 1.2 nM
O=C(NC1CCCCC1)N(Cc1ccc(F)cc1)Cc1nc2ccccc2c(=O)[nH]1 | inconclusive: 1.1 nM
